Values from PubChem BioAssay AID1224828 (NIAID, 2016)

Aim: 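Knock-downs that increase or decrease LPS-induced p65 nuclear translocation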 (primary screen)
System: mouse RAW264.7 G9 macrophage reporter cells (GFP-p65, Tnf promoter-mCherry)
Reagent: siRNA pool against mouse genes, 100 nM
Timing: 2 days siRNA transfection, then 40 min LPS before fixation
Conditions: LPS (Salmonella minnesota R595) at 10 ng/ml
Detection: 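Microscopy ratio of nuclear to perinuclear-ring GFP-p65 signal, scaled to the plate median; gene score is the average of two replicate robust z-scores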
Direction: p65 translocation robust z-score: higher = more nuclear NF-kappaB p65 after LPS than the plate median; nuclear/cytoplasmic p65 ratio: higher = more nuclear NF-kappaB p65
Call rule: 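Active if robust z is above 3.3 (negative regulators) or below -1.56, the Tlr4 control median (positive regulators); activity score 50 or more; control wells not called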
Calls: active = hit (p65 shift raised or lowered); inactive = no clear change
Shown is one part, drawn at random, of about 17,000 reagents tested. 762 of all reagents (4.5%) were called active. 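Active calls include both raised and lowered p65 entry, mostly lowered; wells with fewer than 50 cells lack a z-score.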 Raw values vary from plate to plate and are shown uncorrected.

Knock-down of 1700009J07Rik (RIKEN cDNA 1700009J07 gene) [SID315475083] gave: nuclear/cytoplasmic p65 ratio, rep 1 = 1.47; nuclear/cytoplasmic p65 ratio, rep 2 = 1.36; low cell count flag fewer than 50 cells per well; well left out of scoring; inactive.
With knock-down of Pacc1 (proton activated chloride channel 1) [SID315472735], the screen gave nuclear/cytoplasmic p65 ratio, rep 1 = 1.23; nuclear/cytoplasmic p65 ratio, rep 2 = 1.43; low cell count flag fewer than 50 cells per well; well left out of scoring; inactive.
After knock-down of Nkg7 (natural killer cell group 7 sequence) [SID315474513] the results were p65 translocation robust z-score 1.89; nuclear/cytoplasmic p65 ratio, rep 1 = 1.73; nuclear/cytoplasmic p65 ratio, rep 2 = 1.63; low cell count flag enough cells to score; inactive.
After knock-down of Cyth3 (cytohesin 3) [SID315468733], the screen gave p65 translocation robust z-score -1.44; nuclear/cytoplasmic p65 ratio, rep 1 = 1.18; nuclear/cytoplasmic p65 ratio, rep 2 = 1.32; low cell count flag enough cells to score; inactive.
With knock-down of Tbc1d25 (TBC1 domain family, member 25) [SID315477617], the record shows p65 translocation robust z-score -1.23; nuclear/cytoplasmic p65 ratio, rep 1 = 1.46; nuclear/cytoplasmic p65 ratio, rep 2 = 1.41; low cell count flag enough cells to score; inactive.
Abi3bp (ABI family member 3 binding protein) [SID315481377] scored p65 translocation robust z-score 0.99; nuclear/cytoplasmic p65 ratio, rep 1 = 1.72; nuclear/cytoplasmic p65 ratio, rep 2 = 1.68; low cell count flag enough cells to score; inactive.
Trps1 (transcriptional repressor GATA binding 1) [SID315475876] scored p65 translocation robust z-score -1.08; nuclear/cytoplasmic p65 ratio, rep 1 = 1.35; nuclear/cytoplasmic p65 ratio, rep 2 = 1.36; low cell count flag enough cells to score; inactive.

Look-ups from the list:
Under “p65 translocation robust z-score”, Tbc1d25 (TBC1 domain family, member 25) [SID315477617] is entered as -1.23
For “p65 translocation robust z-score”, Abi3bp (ABI family member 3 binding protein) [SID315481377] reads 0.99

The results go on.
After knock-down of Ca1 (carbonic anhydrase 1) [SID315465755], the screen gave p65 translocation robust z-score -0.38; nuclear/cytoplasmic p65 ratio, rep 1 = 1.51; nuclear/cytoplasmic p65 ratio, rep 2 = 1.6; low cell count flag enough cells to score; inactive.
Silencing of Il1rap (interleukin 1 receptor accessory protein) [SID315467447] came out at: p65 translocation robust z-score 0.37; nuclear/cytoplasmic p65 ratio, rep 1 = 1.53; nuclear/cytoplasmic p65 ratio, rep 2 = 1.43; low cell count flag enough cells to score; inactive.
For Tspan4 (tetraspanin 4) [SID315472108], the values are p65 translocation robust z-score 0.09; nuclear/cytoplasmic p65 ratio, rep 1 = 1.35; nuclear/cytoplasmic p65 ratio, rep 2 = 1.23; low cell count flag enough cells to score; inactive.
Ccr1 (C-C motif chemokine receptor 1) [SID315466012] showed nuclear/cytoplasmic p65 ratio, rep 1 = 1.42; nuclear/cytoplasmic p65 ratio, rep 2 = 1.78; low cell count flag fewer than 50 cells per well; well left out of scoring; inactive.
After knock-down of Prpf31 (pre-mRNA processing factor 31) [SID315473690], the record shows p65 translocation robust z-score 0.14; nuclear/cytoplasmic p65 ratio, rep 1 = 1.67; nuclear/cytoplasmic p65 ratio, rep 2 = 1.6; low cell count flag enough cells to score; inactive.
